Results deposited as PubChem BioAssay AID1259405 (NCATS, 2018).
Screen: 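Silenced genes that increase secreted GFP made by CHO cells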 (primary screen). Cell system: Chinese hamster CHO-K1 ovary cells with stable secreted eGFP expression. Reagents: single siRNA against mouse genes, 0.8 pmol siRNA per well (2 µl of 400 nM stock). Duration: 3 days. Measured: 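Percent of the per-plate non-targeting control median for intracellular GFP per well by laser scanning cytometry and for cell viability by ATP luminescence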. Reading the numbers: GFP, % of control: higher = more GFP per well, higher productivity; viability (ATP), % of control: higher = more viable cells (more ATP). Rule for the call: 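a knock-down is called active if GFP reaches 120% or more of non-targeting control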.
The deposit covers about 50,000 reagents; below is a random part of them. In the full data, about 4,000 (8%) are marked active. 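Mouse siRNA library applied to hamster cells; one well for each siRNA.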 A number with no mark means an inactive call. The numbers tell different reagents against one gene apart.

| gene | siRNA no. | GFP, % of control | viability (ATP), % of control |
| --- | --- | --- | --- |
| Fhod1 | 1 | 87 | 83.2 |
| Fhod1 | 2 | 68.7 | 89 |
| Trpm1 | 1 | 108 | 66.9 |
| Trpm1 | 2 | 97 | 82.6 |
| Trpm1 | 3 | 106 | 99.1 |
| Klrb1c | 1 | 71.5 | 86.3 |
| Klrb1c | 2 | 63.1 | 87.2 |
| Klrb1c | 3 | 67.4 | 67.6 |
| Ubqln3 | 1 | 52 | 48.7 |
| Ubqln3 | 2 | 71.9 | 105 |
| Ubqln3 | 3 | 54.1 | 98.1 |
| Pik3ca | 1 | 84.6 | 75.9 |
| Pdzk1 | 1 | 39.4 | 42.1 |
| Pdzk1 | 2 | 91.4 | 48.3 |
| Pdzk1 | 3 | 80.7 | 93.5 |
| Mapkbp1 | 1 | 68.9 | 34.4 |
| Mapkbp1 | 2 | 42 | 77.4 |
| Mapkbp1 | 3 | 68.8 | 52.1 |
| Stk32b | 1 | 63.8 | 48.8 |
| Timm29 | 1 | 67 | 88.3 |
| Timm29 | 2 | 70.4 | 91.4 |
| Timm29 | 3 | 88.3 | 71.7 |
| Or1ad6 | 1 | 64.2 | 82.5 |
| Or1ad6 | 2 | 53.6 | 76.4 |
| Or1ad6 | 3 | 47 | 53.7 |
| Catsper2 | 1 | 30.4 | 28.8 |
| Catsper2 | 2 | 48.9 | 65.4 |
| Catsper2 | 3 | 89.9 | 80 |
| Rnf113a2 | 1 | 48.4 | 64.3 |
| Rnf113a2 | 2 | 57.3 | 35.6 |
| Rnf113a2 | 3 | 60 | 58.9 |
| Drc2 | 1 | 64.1 | 72.5 |
| Drc2 | 2 | 150 (active) | 105 |
| Drc2 | 3 | 71.4 | 76.5 |
| Scn7a | 1 | 82.9 | 89.5 |
| Scn7a | 2 | 21.8 | 25.5 |
| Scn7a | 3 | 102 | 87.5 |
| Upp1 | 1 | 94.6 | 99.8 |
| Upp1 | 2 | 75.6 | 195 |
| Upp1 | 3 | 90.4 | 109 |
| Cdk19 | 1 | 71.2 | 79.8 |
| Stxbp4 | 1 | 102 | 91.2 |
| Stxbp4 | 2 | 25.4 | 45.7 |
| Stxbp4 | 3 | 59.6 | 51.5 |
| Armcx5 | 1 | 71.4 | 62.3 |
| Armcx5 | 2 | 96.1 | 81.1 |
| Armcx5 | 3 | 61.9 | 73.9 |
| Cdk17 | 1 | 50.6 | 62.4 |
| Rps6ka2 | 1 | 79.8 | 83.4 |
| Rps6ka2 | 2 | 88.1 | 78.4 |
| Rps6ka2 | 3 | 94.2 | 73.9 |
| Bag5 | 1 | 83.2 | 82 |
| Bag5 | 2 | 99.3 | 67.5 |
| Bag5 | 3 | 50.1 | 64.1 |
| Taf11 | 1 | 96.8 | 110 |
| Taf11 | 2 | 85.6 | 70.8 |
| Taf11 | 3 | 58 | 86.4 |
| Retreg3 | 1 | 92.3 | 89.7 |
| Retreg3 | 2 | 77.3 | 79.7 |
| Retreg3 | 3 | 37.9 | 46.7 |
| Ngdn | 1 | 35.8 | 56.4 |
| Ngdn | 2 | 75.7 | 79.1 |
| Ngdn | 3 | 45.2 | 61.1 |
| Hoxb13 | 1 | 62.3 | 67.8 |
| Hoxb13 | 2 | 94.8 | 84.9 |
| Hoxb13 | 3 | 53.1 | 106 |
| Aph1c | 1 | 92 | 116 |
| Aph1c | 2 | 112 | 64.3 |
| Aph1c | 3 | 87.4 | 51.1 |
| Pcf11 | 1 | 88.9 | 74.9 |
| Pcf11 | 2 | 118 | 87.4 |
| Pcf11 | 3 | 83.7 | 74.1 |
| Ptk6 | 1 | 50.3 | 57.5 |
| Cdkn1b | 1 | 53.9 | 64 |
| Cdkn1b | 2 | 77.9 | 63 |
| Cry1 | 1 | 70.8 | 72.1 |
| Cry1 | 2 | 53.5 | 60.8 |
| Cry1 | 3 | 73.4 | 73.7 |
| Slc38a11 | 1 | 81 | 68.3 |
| Slc38a11 | 2 | 54.1 | 43.5 |
| Slc38a11 | 3 | 72.4 | 85.5 |
| Ghdc | 1 | 89.4 | 84.8 |
| Ghdc | 2 | 75.6 | 80.1 |
| Ghdc | 3 | 82.4 | 92.2 |
| Syt4 | 1 | 113 | 118 |
| Syt4 | 2 | 94.3 | 84.4 |
| Hectd2 | 1 | 79.2 | 62.6 |
| Hectd2 | 2 | 57.7 | 59.2 |
| Hectd2 | 3 | 56.7 | 67.4 |
| Or8k30 | 1 | 152 (active) | 53.8 |
| Or8k30 | 2 | 35.7 | 50.6 |
| Or8k30 | 3 | 113 | 101 |
| Cbx5 | 1 | 94.4 | 74.9 |
| Cbx5 | 2 | 81.7 | 55.6 |
| Cbx5 | 3 | 63.3 | 61.6 |
| Tspo | 1 | 76.5 | 70 |
| Tspo | 2 | 79.7 | 72.7 |
| Tspo | 3 | 62.9 | 84 |
| Zfp942 | 1 | 52.6 | 58.2 |
| Zfp942 | 2 | 97.9 | 107 |
| Zfp942 | 3 | 76.8 | 76.8 |
| Slf1 | 1 | 100 | 96.7 |
| Slf1 | 2 | 76.9 | 86.3 |
| Slf1 | 3 | 61.5 | 48.7 |
| Sp100 | 1 | 60.6 | 65 |
| Sp100 | 2 | 87.2 | 82.5 |
| Sp100 | 3 | 43.5 | 38.3 |
